Experimental data from publication PMC5510000.
Construct, isoform or probe ends are uncertain for at least one entry.

Chains of the proteins cited; added tags and fusions are not shown. A line that says so, or that is headed by a name, gives the form on record, which may keep a tag or linker.
RPA (full-length heterotrimer) (Homo sapiens), one chain, as listed by the source, chain 2 of 3: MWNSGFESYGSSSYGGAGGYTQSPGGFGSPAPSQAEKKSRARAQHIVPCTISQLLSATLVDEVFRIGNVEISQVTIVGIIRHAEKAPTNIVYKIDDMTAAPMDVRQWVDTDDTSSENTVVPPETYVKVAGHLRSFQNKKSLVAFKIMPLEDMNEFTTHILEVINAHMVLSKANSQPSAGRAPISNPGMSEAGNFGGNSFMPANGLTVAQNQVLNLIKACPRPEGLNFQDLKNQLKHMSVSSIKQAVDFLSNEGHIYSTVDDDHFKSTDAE
RPA (full-length heterotrimer) (Homo sapiens), one chain, as listed by the source, chain 1 of 3: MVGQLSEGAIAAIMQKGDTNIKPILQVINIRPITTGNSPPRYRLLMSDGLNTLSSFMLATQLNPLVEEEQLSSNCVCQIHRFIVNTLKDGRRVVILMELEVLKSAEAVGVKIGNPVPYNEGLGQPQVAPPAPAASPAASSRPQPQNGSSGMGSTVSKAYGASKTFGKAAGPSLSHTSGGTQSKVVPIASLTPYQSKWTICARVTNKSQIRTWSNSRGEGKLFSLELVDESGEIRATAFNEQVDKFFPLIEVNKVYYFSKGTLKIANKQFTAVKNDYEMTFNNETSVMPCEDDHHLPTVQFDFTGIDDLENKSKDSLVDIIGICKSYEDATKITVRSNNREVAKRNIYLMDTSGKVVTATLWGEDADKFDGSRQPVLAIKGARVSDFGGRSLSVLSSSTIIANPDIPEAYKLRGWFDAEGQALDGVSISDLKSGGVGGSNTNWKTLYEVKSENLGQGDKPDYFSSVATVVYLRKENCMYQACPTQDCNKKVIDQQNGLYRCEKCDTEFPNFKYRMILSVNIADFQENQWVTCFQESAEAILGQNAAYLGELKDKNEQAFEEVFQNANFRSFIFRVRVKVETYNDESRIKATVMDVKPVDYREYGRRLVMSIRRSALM
RPA (full-length heterotrimer) (Homo sapiens), one chain, as listed by the source, chain 3 of 3: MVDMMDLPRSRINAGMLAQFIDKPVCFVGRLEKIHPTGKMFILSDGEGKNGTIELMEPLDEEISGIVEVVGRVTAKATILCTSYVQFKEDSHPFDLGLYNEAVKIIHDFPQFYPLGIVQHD

Tests used:
[1] = system: RPA (full-length heterotrimer) (Homo sapiens); assay: limited trypsin proteolysis; settings: recombinant protein
[2] = system: RPA (full-length heterotrimer) (Homo sapiens); assay: fluorescence anisotropy; settings: 1 mM MnCl2; RPA mixed 1:1 with 10 nM fluorescein-labelled DNA, 30 ul; recombinant protein

Sequence: ATAAATATTTTTTATTAATAATAGATCACCTTTCTTTCTCTTCTCCCCTT / TTCCCCTCCTCTCCTTCCTTCCTGATCTATTATTAATAAAAAATATTTAT / AAGGGGAGAAGAGAAAGAAAGG [fork + leading strand]
- binding result [1]: binds
- Kd [2]: 6 nM
